Measurements: publication PMC7949057, “The cytoprotective protein MANF promotes neuronal survival independently from its role as a GRP78 cofactor” (The Journal of Biological Chemistry, 2021)

T1: SH-tagged MANF (pre-SH-MANF), expressed in HEK293 cells (human) (UniProt P55145)
T1 sequence: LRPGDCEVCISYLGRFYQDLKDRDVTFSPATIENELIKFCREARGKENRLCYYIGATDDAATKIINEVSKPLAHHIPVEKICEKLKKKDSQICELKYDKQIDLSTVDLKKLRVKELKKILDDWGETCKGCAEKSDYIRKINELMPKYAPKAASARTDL

B1: glucose-regulated protein 170 kDa (GRP170), endogenous in HEK293 (protein, UniProt Q9Y4L1 33-999)
chain: LAVMSVDLGSESMKVAIVKPGVPMEIVLNKESRRKTPVIVTLKENERFFGDSAASMAIKNPKATLRYFQHLLGKQADNPHVALYQARFPEHELTFDPQRQTVHFQISSQLQFSPEEVLGMVLNYSRSLAEDFAEQPIKDAVITVPVFFNQAERRAVLQAARMAGLKVLQLINDNTATALSYGVFRRKDINTTAQNIMFYDMGSGSTVCTIVTYQMVKTKEAGMQPQLQIRGVGFDRTLGGLEMELRLRERLAGLFNEQRKGQRAKDVRENPRAMAKLLREANRLKTVLSANADHMAQIEGLMDDVDFKAKVTRVEFEELCADLFERVPGPVQQALQSAEMSLDEIEQVILVGGATRVPRVQEVLLKAVGKEELGKNINADEAAAMGAVYQAAALSKAFKVKPFVVRDAVVYPILVEFTREVEEEPGIHSLKHNKRVLFSRMGPYPQRKVITFNRYSHDFNFHINYGDLGFLGPEDLRVFGSQNLTTVKLKGVGDSFKKYPDYESKGIKAHFNLDESGVLSLDRVESVFETLVEDSAEEESTLTKLGNTISSLFGGGTTPDAKENGTDTVQEEEESPAEGSKDEPGEQVELKEEAEAPVEDGSQPPPPEPKGDATPEGEKATEKENGDKSEAQKPSEKAEAGPEGVAPAPEGEKKQKPARKRRMVEEIGVELVVLDLPDLPEDKLAQSVQKLQDLTLRDLEKQEREKAANSLEAFIFETQDKLYQPEYQEVSTEEQREEISGKLSAASTWLEDEGVGATTVMLKEKLAELRKLCQGLFFRVEERKKWPERLSALDNLLNHSSMFLKGARLIPEMDQIFTEVEMTTLEKVINETWAWKNATLAEQAKLPATEKPVLLSKDIEAKMMALDREVQYLLNKAKFTKPRPRPKDKNGTRAEPPLNASASDQGEKVIPPAGQTEDAEPISEPEKVETGSEPGDTEPLELGGPGAEPEQKEQSTGQKRPLKNDEL
B2: protein disulfide isomerase family A member 4, endogenous in HEK293 (protein, UniProt P13667 21-645)
chain: VAGAEGPDEDSSNRENAIEDEEEEEEEDDDEEEDDLEVKEENGVLVLNDANFDNFVADKDTVLLEFYAPWCGHCKQFAPEYEKIANILKDKDPPIPVAKIDATSASVLASRFDVSGYPTIKILKKGQAVDYEGSRTQEEIVAKVREVSQPDWTPPPEVTLVLTKENFDEVVNDADIILVEFYAPWCGHCKKLAPEYEKAAKELSKRSPPIPLAKVDATAETDLAKRFDVSGYPTLKIFRKGRPYDYNGPREKYGIVDYMIEQSGPPSKEILTLKQVQEFLKDGDDVIIIGVFKGESDPAYQQYQDAANNLREDYKFHHTFSTEIAKFLKVSQGQLVVMQPEKFQSKYEPRSHMMDVQGSTQDSAIKDFVLKYALPLVGHRKVSNDAKRYTRRPLVVVYYSVDFSFDYRAATQFWRSKVLEVAKDFPEYTFAIADEEDYAGEVKDLGLSESGEDVNAAILDESGKKFAMEPEEFDSDTLREFVTAFKKGKLKPVIKSQPVPKNNKGPVKVVVGKTFDSIVMDPKKDVLIEFYAPWCGHCKQLEPVYNSLAKKYKGQKGLVIAKMDATANDVPSDRYKVEGFPTIYFAPSGDKKNPVKFEGGDRDLEHLSKFIEEHATKLSRTKEEL
B3: protein disulfide isomerase family A member 6 (PDIA6), endogenous in HEK293 (protein, UniProt Q15084 20-440)
chain: LYSSSDDVIELTPSNFNREVIQSDSLWLVEFYAPWCGHCQRLTPEWKKAATALKDVVKVGAVDADKHHSLGGQYGVQGFPTIKIFGSNKNRPEDYQGGRTGEAIVDAALSALRQLVKDRLGGRSGGYSSGKQGRSDSSSKKDVIELTDDSFDKNVLDSEDVWMVEFYAPWCGHCKNLEPEWAAAASEVKEQTKGKVKLAAVDATVNQVLASRYGIRGFPTIKIFQKGESPVDYDGGRTRSDIVSRALDLFSDNAPPPELLEIINEDIAKRTCEEHQLCVVAVLPHILDTGAAGRNSYLEVLLKLADKYKKKMWGWLWTEAGAQSELETALGIGGFGYPAMAAINARKMKFALLKGSFSEQGINEFLRELSFGRGSTAPVGGGAFPTIVEREPWDGRDGELPVEDDIDLSDVELDDLGKDEL
B4: neutral alpha-glucosidase AB, endogenous in HEK293 (protein, UniProt Q14697 29-944)
chain: ITLAVDRSNFKTCEESSFCKRQRSIRPGLSPYRALLDSLQLGPDSLTVHLIHEVTKVLLVLELQGLQKNMTRFRIDELEPRRPRYRVPDVLVADPPIARLSVSGRDENSVELTMAEGPYKIILTARPFRLDLLEDRSLLLSVNARGLLEFEHQRAPRVSQGSKDPAEGDGAQPEETPRDGDKPEETQGKAEKDEPGAWEETFKTHSDSKPYGPMSVGLDFSLPGMEHVYGIPEHADNLRLKVTEGGEPYRLYNLDVFQYELYNPMALYGSVPVLLAHNPHRDLGIFWLNAAETWVDISSNTAGKTLFGKMMDYLQGSGETPQTDVRWMSETGIIDVFLLLGPSISDVFRQYASLTGTQALPPLFSLGYHQSRWNYRDEADVLEVDQGFDDHNLPCDVIWLDIEHADGKRYFTWDPSRFPQPRTMLERLASKRRKLVAIVDPHIKVDSGYRVHEELRNLGLYVKTRDGSDYEGWCWPGSAGYPDFTNPTMRAWWANMFSYDNYEGSAPNLFVWNDMNEPSVFNGPEVTMLKDAQHYGGWEHRDVHNIYGLYVHMATADGLRQRSGGMERPFVLARAFFAGSQRFGAVWTGDNTAEWDHLKISIPMCLSLGLVGLSFCGADVGGFFKNPEPELLVRWYQMGAYQPFFRAHAHLDTGRREPWLLPSQHNDIIRDALGQRYSLLPFWYTLLYQAHREGIPVMRPLWVQYPQDVTTFNIDDQYLLGDALLVHPVSDSGAHGVQVYLPGQGEVWYDIQSYQKHHGPQTLYLPVTLSSIPVFQRGGTIVPRWMRVRRSSECMKDDPITLFVALSPQGTAQGELFLDDGHTFNYQTRQEFLLRRFSFSGNTLVSSSADPEGHFETPIWIERVVIIGAGKPAAVVLQTKGSPESRLSFQHDPETSVLVLRKPGINVASDWSIHLR

molecular target: T1, SH-tagged MANF (pre-SH-MANF), expressed in HEK293 cells (human); assay: affinity purification with mass spectrometry; SH-tagged MANF as bait from doxycycline-induced HEK293 pre-SH-MANF cells; HENN lysis buffer (50 mM Hepes-NaOH pH 8.0, 5 mM EDTA, 150 mM NaCl, 50 mM NaF, 0.5% NP40); Strep-Tactin beads, biotin elution; GFP-SH cells as negative control; FDR <= 0.001, s0 = 2

| Binder | binding |
| --- | --- |
| B1 | binds |
| B2 | binds |
| B3 | binds |
| B4 | binds |

These are yes or no findings as the source states them, for the method shown. Binding seen in cells or lysates may run through a third protein. Here binding means that the protein was enriched with, or labelled near, the bait; the list need not be complete. Tags and fused reporters may be left off the sequences shown.
